Test results: the supplement of paper PMC10735217
Structures can show the parent of a compound that is named as a salt. The list shows a part of the results. Single values are uncertain here, since repeats match poorly.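 Human kidney-derived cells stably carry a construct in which eight TEAD-binding elements drive luciferase, measured by luminescence in a drug-repurposing library screen. A hit is any compound whose signal exceeds the plate mean by more than five robust Z scores.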

Tested on: HEK293A TEAD-LUC reporter
Experiment: TEAD-luciferase reporter activity (YAP activation), robust Z score vs plate; higher = stronger YAP/TEAD activation
Conditions: 24 h

SMILES | TEAD-luciferase reporter activity (compound concentration: 200 nM) | TEAD-luciferase reporter activity (compound concentration: 2 uM) | TEAD-luciferase reporter activity (compound concentration: 10 uM)
COc1ccc(NC(=N)Nc2ccc3c4c(cccc24)CC3)c2ccccc12 | inactive: -0.547 | inactive: 1.12 | inactive: 1.18
CNCCc1nc2ccccc2n1CCOC | inactive: 0.289 | inactive: -1.37 | inactive: -1.12
CS(=O)(=O)c1ccc(C2=C(c3ccc(F)cc3)CC3(CC3)C2)cc1 | inactive: -2.81 | inactive: 0.844 | inactive: 0.639
CC(C)C[C@@H]1NC(=O)[C@H](Cc2ccccc2)NC(=O)[C@H](Cc2ccc(O)cc2)NC(=O)CCSSC[C@@H](C(=O)N2CCC[C@H]2C(=O)N[C@@H](CCCCN)C(=O)NCC(N)=O)NC(=O)[C@H](CC(N)=O)NC1=O | inactive: -0.834 | inactive: -1.14 | inactive: 0.489
CNC1CCc2ncsc2C1 (configuration not stated) | inactive: 1.17 | inactive: -1.73 | inactive: -0.369
C=CCC(N)c1ccccc1-c1noc2ccccc12 (configuration not stated) | inactive: 0.374 | inactive: 0.105 | inactive: -0.394
COC(=O)CC1C[C@@H](COc2ccc(-c3ccc(C(=N)NC(=O)OC)cc3)cc2)NC1=O (some centres not stated) | inactive: -0.785 | inactive: 0.0115 | inactive: -1.8
O=C(CCCc1ccccc1)OCC(COC(=O)CCCc1ccccc1)OC(=O)CCCc1ccccc1 [Glycerol phenylbutyrate] | inactive: 0.63 | inactive: -1.36 | inactive: -0.899
NS(=O)(=O)c1cc2c(cc1Cl)NC(C1CC3C=CC1C3)NS2(=O)=O (configuration not stated) [Cyclothiazide] | inactive: -1.29 | inactive: -2.44 | inactive: -0.0139
O=C1NC2(CN(Cc3ccccc3)C2)Oc2ccccc21 | inactive: -1.35 | – | inactive: -0.455
Cc1cccc(C)c1OCC(C)N (configuration not stated) | inactive: -2.75 | – | inactive: -0.883
Cc1cccc(C)c1OCC(C)N [(S)-mexiletine] | – | inactive: -1.75 | –
CC1CCCC(C)N1CCCCNC(=O)C(Oc1ccccc1)c1ccccc1 (configuration not stated) | inactive: -0.744 | inactive: -0.484 | inactive: -0.337
C[S+](C)[O-] [Place Holder for Patent Registration] | inactive: -0.855 | – | inactive: 0.406
CC(C)c1cc(CNc2nc(Nc3cc(C4CC4)[nH]n3)cc(N3CCN(C)CC3)n2)on1 | inactive: 0.391 | inactive: -1.63 | inactive: -2.39
O=C(Nc1cc(C(F)(F)F)ccc1C(F)(F)F)c1cc(Br)cc(Br)c1O [analog of IMD-0560] | inactive: -0.739 | inactive: -2.34 | inactive: -1.35
N=C(N)NCCCCCC(=O)O | inactive: 2.6 | inactive: -1.32 | inactive: 0.403
O=C(Cn1c(Cl)cnc(NCC(F)(F)c2ccccn2)c1=O)NCc1ncccc1F | inactive: 1.42 | inactive: -1.05 | inactive: -0.657
CO/N=C(\C(=O)N[C@@H]1C(=O)N2C(C(=O)[O-])=C(C[n+]3ccc(-c4cnco4)cc3)CS[C@H]12)c1csc(N)n1 | inactive: -1.51 | inactive: 1.44 | inactive: -0.105

SMILES | TEAD-luciferase reporter activity (compound concentration: 200 nM) | TEAD-luciferase reporter activity (compound concentration: 2 uM) | TEAD-luciferase reporter activity (compound concentration: 10 uM)
Nc1ccc(C(=O)N2C[C@@H]3C[C@@H](CN(Cc4ccccc4)C3)C2)cc1 | inactive: 1.51 | inactive: -0.943 | inactive: -0.218
COc1ccc(CN(CCN(C)C)c2nccs2)cc1 | inactive: -1.06 | inactive: -1.61 | inactive: -1.02
C=C1C(=O)OC2CC3(C)CCCC(C)C3=CC12 (configuration not stated) | inactive: 1.02 | inactive: -0.992 | inactive: -0.25
COc1ccc(OCc2ccc(COc3c(Cl)cccc3Cl)cc2)c(Cl)c1 [pocapavir] | inactive: -1.06 | inactive: -2.06 | inactive: -0.235
Cc1cccc(COC(=O)N(C)C)c1 | inactive: 0.974 | inactive: -1.86 | inactive: -1.71
CCc1c(C(=O)N[C@H]2CC[C@H](CO)CC2)cnn1-c1ccc(C)cc1 | inactive: 1.63 | inactive: -1.58 | inactive: 2.5
CC(C)(C)OC(=O)N1CCC(C(=O)O)CC1 | inactive: -0.612 | inactive: -1.55 | inactive: -1.39
Cc1ccc(NC(=O)NCc2ccc3c(c2)CN(C2CCC(=O)NC2=O)C3=O)cc1Cl (configuration not stated) | inactive: -1.75 | inactive: -0.98 | inactive: -2.1
CC(C)(C)n1nnc2c3c(ccc21)C1=CC(=O)CC[C@@]1(CCOc1ccccc1)C3 | inactive: -2.34 | inactive: 0.765 | inactive: -0.994
C[N+]1(CC2COC(c3ccccc3)(C3CCCCC3)O2)CCCCC1 (configuration not stated) [Oxapium Iodide] | inactive: 0.233 | inactive: -1.69 | inactive: 2.88
CC(C)OP(=O)(O)COC(CF)Cn1cnc2c(N)ncnc21 (configuration not stated) | inactive: 1.1 | inactive: -0.597 | inactive: -1.3
CN(CCNCc1cc(C(C)(C)C)cc(Br)c1O)CCNC(=O)c1nc(Cl)c(N)nc1N | inactive: 0.324 | inactive: -0.407 | inactive: -1.58
NCCCC(N)(C(=O)O)C(F)F (configuration not stated) [eflornithine, Aventis] | – | inactive: 0.764 | –
N#Cc1ccc(Oc2ccc(NC(=O)Nc3ccc(Cl)c(C(F)(F)F)c3)cc2)cc1 | inactive: -1.11 | inactive: -2.51 | inactive: -0.521
N#CCC(=O)c1nc(-c2cccs2)no1 | inactive: -0.0232 | inactive: 0.854 | inactive: 1.9
O=S(=O)([O-])CCSSCCS(=O)(=O)[O-] [dimesna disulfide] | inactive: 0.165 | inactive: -0.733 | inactive: 0.472
CN1CCN(CCCCN2C(=O)CN(/N=C/c3ccc(-c4ccc(Cl)cc4)o3)C2=O)CC1 [azimilide dihydrochloride] | inactive: -0.787 | inactive: -1.8 | inactive: -1.07
N=C(NNc1ccc(Cl)cc1)c1ccccc1 | inactive: 1.22 | inactive: 3.45 | inactive: -1.01
O=C(Nc1nc(=O)n(C2OC(COC(=O)c3ccccc3)C(OC(=O)c3ccccc3)C2OC(=O)c2ccccc2)cc1F)c1ccccc1 (configuration not stated) | inactive: 0.784 | inactive: -0.532 | inactive: -0.0992

Whole records as entered above. Values in the order: TEAD-luciferase reporter activity (compound concentration: 200 nM) | TEAD-luciferase reporter activity (compound concentration: 2 uM) | TEAD-luciferase reporter activity (compound concentration: 10 uM)
CC(C)(C)n1nnc2c3c(ccc21)C1=CC(=O)CC[C@@]1(CCOc1ccccc1)C3 in the list: inactive: -2.34 | inactive: 0.765 | inactive: -0.994
C=C1C(=O)OC2CC3(C)CCCC(C)C3=CC12 (configuration not stated) in the list: inactive: 1.02 | inactive: -0.992 | inactive: -0.25
O=C(Nc1nc(=O)n(C2OC(COC(=O)c3ccccc3)C(OC(=O)c3ccccc3)C2OC(=O)c2ccccc2)cc1F)c1ccccc1 (configuration not stated) in the list: inactive: 0.784 | inactive: -0.532 | inactive: -0.0992
